These are yes or no findings as the source states them, for the method shown. In cells and extracts the contact can be indirect. Some binding calls cover weakened binding; strength is not graded here.
Target: Human fibroleukin 2 (Fgl2) (human) (UniProt Q14314)
Assay: co-IP; CSCC cells; anti-Fgl2 antibody used for IP, immunoprecipitates examined by Western blots

Sequences of proteins named here, by UniProt entry; tags and fusion partners are left off. Residues count along the entry.
UniProt Q14314, residues 24-439: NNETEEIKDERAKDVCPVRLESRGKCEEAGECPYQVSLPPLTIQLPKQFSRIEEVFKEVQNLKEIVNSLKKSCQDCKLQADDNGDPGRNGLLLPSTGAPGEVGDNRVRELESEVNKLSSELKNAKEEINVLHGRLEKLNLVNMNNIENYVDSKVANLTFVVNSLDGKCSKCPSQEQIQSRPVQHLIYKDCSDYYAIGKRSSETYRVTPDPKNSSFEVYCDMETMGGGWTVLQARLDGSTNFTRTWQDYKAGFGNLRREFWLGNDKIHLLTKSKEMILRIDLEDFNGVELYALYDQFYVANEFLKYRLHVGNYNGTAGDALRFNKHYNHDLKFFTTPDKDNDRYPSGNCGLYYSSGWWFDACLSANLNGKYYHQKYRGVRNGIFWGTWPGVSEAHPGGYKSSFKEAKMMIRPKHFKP
UniProt O43914, residues 22-113: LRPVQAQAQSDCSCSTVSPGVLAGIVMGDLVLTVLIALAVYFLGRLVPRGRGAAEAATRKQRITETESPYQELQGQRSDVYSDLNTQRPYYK

binding: binds
Substance: Tyrobp (DNAX-activating protein of 12 kDa, DAP12) (from UniProt O43914 22-113)

Source: paper PMC8692121
